These results are taken from article PMC10157619.

By UniProt entry, the sequences of proteins in these tests, tags left out.
UniProt P10085: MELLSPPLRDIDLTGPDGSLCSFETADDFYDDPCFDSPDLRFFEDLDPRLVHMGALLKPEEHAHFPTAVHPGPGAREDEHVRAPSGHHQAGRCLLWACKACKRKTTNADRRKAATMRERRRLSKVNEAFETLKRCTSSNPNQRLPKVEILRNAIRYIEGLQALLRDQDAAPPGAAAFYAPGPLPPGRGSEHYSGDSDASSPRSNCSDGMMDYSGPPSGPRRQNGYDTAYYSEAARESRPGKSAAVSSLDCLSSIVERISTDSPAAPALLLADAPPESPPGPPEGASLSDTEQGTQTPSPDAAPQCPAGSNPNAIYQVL

The target of this experiment is MyoD (mouse (endogenous in C2C12)) (UniProt P10085). As to the kind of experiment: co-IP; lysates of C2C12 cells differentiated for 1 d; Dynabeads Protein G coated with anti-Deltex2 or anti-MyoD antibody, lysate incubated overnight at 4°C, 3 washes; western blot. (In western blotting, separated proteins are transferred to a membrane and probed.)

Results are given in words; binding and its absence hold for the method and conditions named. In cells and extracts the contact can be indirect. Some entries that bind do so weakly or less than the wild type.

B1: Deltex2 (protein, UniProt Q8R3P2-1 1-619)
chain: MAMAPSSSLPQVYPSHVVVAVWEWQDGLGIWHPYSATVCSFIEQHFVRQRGQHFGLGSLAHSIPLGQADPSLAPYIIDLPSWTQFRQNTGTMRSVRRHLFSQNSAPGQGIVWEWLGDDGSWVAYEARICDYLEQQVARGIQVVDLAPLGYNYTVNYATLTQTNKTSSFCRSVRRQVGPVYPVTSDIAVPRQMGLICFCQQCLHGSGTGPVSGRYRHSMTNLPAYPAPQAPHRTTTVSGAHQAFAPYNKPSLSGARSAPRLNTTNPWAAAPPVAGNQSLFHSSLSHLGPQLLPSGPSTSSGASASFPSGPSSSSPGSAPTTVPVQMPKASRVQQALAGMTSVLSAIGLPVCLSRAPRPTGPPASRPASKSHSSVKRLRKMSVKEGAPKPEPEQVIRKYTEELKVAPEEDCIICMEKLAVASGYSDMTDSKALGPMVVGRLTKCSHAFHLLCLLAMYCNGNKDGSLQCPSCKTIYGEKTGTQPWGKMEVFRFQMSLPGHEDCGTILIVYNIPHGIQGPEHPSPGKPFTARGFPRQCYLPDSPQGRKVLELLKVAWKRRLIFTVGTSSTTGETDTVVWNEIHHKTEMDRNVTGHGYPDPNYLQNVLAELAAQGVTEDCLEQQ
Take B1: the binding result was “binds”.
